Test results from paper PMC5928155, “Sak4 of Phage HK620 Is a RecA Remote Homolog With Single-Strand Annealing Activity Stimulated by Its Cognate SSB Protein” (Frontiers in Microbiology, 2018).

Key:
Experiment in all cases: EMSA
[1] = tested on: Sak4 (HkaL) + SSB HK620 (HkaK); conditions: no ATP, Sak4 does not shift SSB-ssDNA complexes (SSB itself bound); EMSA: 13 mM Tris-HCl pH 7.5, 5 mM MgCl2, 169 mM NaCl, 0.1 mg/mL BSA, 1 mM DTT, +/- 1 mM ATP, 10 nM DNA, 15 min at 30 C; 5% native PAGE in 1X TAE; recombinant protein; label: 5'-Cy5; single-stranded DNA
[2] = target: T1, Sak4 (HkaL) (Enterobacteria phage HK620) (UniProt Q9AZ29); conditions: EMSA: 13 mM Tris-HCl pH 7.5, 5 mM MgCl2, 169 mM NaCl, 0.1 mg/mL BSA, 1 mM DTT, +/- 1 mM ATP, 10 nM DNA, 15 min at 30 C, 5% native PAGE in 1X TAE, recombinant protein, residues 1-226, label: 5'-Cy5, single-stranded DNA
T1 sequence (looked up): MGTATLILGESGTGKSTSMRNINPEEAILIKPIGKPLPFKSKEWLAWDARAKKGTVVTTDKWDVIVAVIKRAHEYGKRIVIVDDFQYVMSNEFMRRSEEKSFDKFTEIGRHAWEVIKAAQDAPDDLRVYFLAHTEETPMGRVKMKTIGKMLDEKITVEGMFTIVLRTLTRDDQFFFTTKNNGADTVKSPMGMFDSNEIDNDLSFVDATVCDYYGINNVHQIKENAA

[3] = tested on: Sak4 (HkaL) + SSB HK620 delta6; conditions: Sak4 does not shift SSBdelta6-ssDNA complexes (SSBdelta6 itself bound), EMSA: 13 mM Tris-HCl pH 7.5, 5 mM MgCl2, 169 mM NaCl, 0.1 mg/mL BSA, 1 mM DTT, 10 nM DNA, 15 min at 30 C, 5% native PAGE in 1X TAE, recombinant protein

Measured: binding result

ACCTGAATCGCCAGCGGCATCAGCACCTTGTCGCCTTACGTATACTATTTGCCCATGGTGAAAACGGGGGCGAAGAAGTTG [GO47]
no binding: [1] | [2]; ADP | [2]; no ATP | [3]; 1 mM ATP, label: 5'-Cy5, single-stranded DNA | [3]; no ATP, +/- 1 mM ATP, label: 5'-Cy5, single-stranded DNA

A negative result means that nothing was seen under these conditions. For some assays here: Where a protein sequence is shown, tags need not be part of it.
